Measurements reported in US11542492B2 (Celgene CAR LLC, priority 2009, dated 2023).
Some entries share one result that the patent states for a list of compounds. For at least one compound, name, drawing or mass did not settle the structure.

Tested on: HCV Protease, or mutants thereof
Experiment: Modification of HCV Protease, or mutants thereof (summary of MS data)
Format: binding

Row | Compound | modification of HCV Protease, or mutants thereof [%]
1 | C=C[C@@H]1C[C@]1(NC(=O)[C@@H]1CC(Oc2nccc3cc(OC)ccc23)CN1C(=O)[C@H](CCC(=O)N1CC[C@H]2C[C@@H]1C(=O)O2)NC(=O)OC(C)(C)C)C(=O)NS(=O)(=O)C1CC1 (some centres unmarked) [XVI-2] | ≤ 30
2 | C=C[C@@H]1C[C@]1(NC(=O)[C@@H]1CC(Oc2nccc3cc(OC)ccc23)CN1C(=O)[C@H](CCC(=O)N1C[C@@H]2CC[C@H]1C(=O)O2)NC(=O)OC(C)(C)C)C(=O)NS(=O)(=O)C1CC1 (stereo partly drawn) [XVI-3, tert-butyl(2S)-1-((2S)-2-((1R,2S)-1-(cyclopropylsulfonylcarbamoyl)-2-vinylcyclopropylcarbamoyl)-4-(6-methoxyisoquinolin-1-yloxy)pyrrolidin-1-yl)-1,5-dioxo-5-((1S,4S)-3-oxo-2-oxa-5-azabicyclo[2.2.2]octan-5-yl)pentan-2-ylcarbamate] | ≤ 30
3 | C=C[C@@H]1C[C@]1(NC(=O)[C@@H]1C[C@@H](OC(=O)N2Cc3cccc(F)c3C2)CN1C(=O)[C@H](CNC(=O)c1cc(C(C)=O)oc1C)NC(=O)OC(C)(C)C)C(=O)NS(=O)(=O)C1CC1 [XVI-4] | ≤ 30
4 | C=C[C@@H]1C[C@]1(NC(=O)[C@@H]1C[C@@H](OC(=O)N2Cc3cccc(F)c3C2)CN1C(=O)[C@H](CNC(=O)c1coc(C(C)=O)c1)NC(=O)OC(C)(C)C)C(=O)NS(=O)(=O)C1CC1 [XVI-5] | ≤ 30
5 | C=C[C@@H]1C[C@]1(NC(=O)[C@@H]1CC(Oc2nccc3cc(OC)ccc23)CN1C(=O)[C@H](CCC(=O)N1C[C@H]2C[C@@H]1C(=O)O2)NC(=O)OC(C)(C)C)C(=O)NS(=O)(=O)C1CC1 (some centres unmarked) [XVI-8] | > 70
6 | C=C[C@@H]1C[C@]1(NC(=O)[C@@H]1CC(OC(=O)N2Cc3cccc(F)c3C2)CN1C(=O)[C@H](CCC(=O)N1C[C@H]2C[C@@H]1C(=O)O2)NC(=O)OC(C)(C)C)C(=O)NS(=O)(=O)C1CC1 (stereo partly drawn) [XVI-16, (5S)-1-((S)-2-(tert-butoxycarbonylamino)-5-oxo-5-((1R,4R)-3-oxo-2-oxa-5-azabicyclo[2.2.1]heptan-5-yl)pentanoyl)-5-((1R,2S)-1-(cyclopropylsulfonylcarbamoyl)-2-vinylcyclopropylcarbamoyl)pyrrolidin-3-yl 4-fluoroisoindoline-2-carboxylate] | > 70
7 | C=C[C@@H]1C[C@]1(NC(=O)[C@@H]1CC(OC(=O)N2Cc3cccc(F)c3C2)CN1C(=O)[C@H](CCC(=O)N1C[C@@H]2C[C@H]1C(=O)O2)NC(=O)OC(C)(C)C)C(=O)NS(=O)(=O)C1CC1 (stereo partly drawn) [XVI-17, (5S)-1-((S)-2-(tert-butoxycarbonylamino)-5-oxo-5-((1S,4S)-3-oxo-2-oxa-5-azabicyclo[2.2.1]heptan-5-yl)pentanoyl)-5-((1R,2S)-1-(cyclopropylsulfonylcarbamoyl)-2-vinylcyclopropylcarbamoyl)pyrrolidin-3-yl 4-fluoroisoindoline-2-carboxylate] | > 70
8 | C=C[C@@H]1C[C@]1(NC(=O)[C@@H]1CC(OC(=O)N2Cc3cccc(F)c3C2)CN1C(=O)[C@H](CN(C)C(=O)[C@@H]1CCC(=O)O1)NC(=O)OC(C)(C)C)C(=O)NS(=O)(=O)C1CC1 (stereo partly drawn) [XVI-19, (5S)-1-((S)-2-(tert-butoxycarbonylamino)-3-((S)-N-methyl-5-oxotetrahydrofuran-2-carboxamido)propanoyl)-5-((1R,2S)-1-(cyclopropylsulfonylcarbamoyl)-2-vinylcyclopropylcarbamoyl)pyrrolidin-3-yl 4-fluoroisoindoline-2-carboxylate] | ≤ 30
9 | C=C[C@@H]1C[C@]1(NC(=O)[C@@H]1CC(Oc2cc(-c3ccccc3)nc3cc(OC)ccc23)CN1C(=O)[C@H](CNC(=O)[C@@H]1CCC(=O)O1)NC(=O)OC(C)(C)C)C(=O)NS(=O)(=O)C1CC1 (stereo partly drawn) [XVI-24, tert-butyl(2S)-1-((2S)-2-((1R,2S)-1-(cyclopropylsulfonylcarbamoyl)-2-vinylcyclopropylcarbamoyl)-4-(7-methoxy-2-phenylquinolin-4-yloxy)pyrrolidin-1-yl)-1-oxo-3-((S)-5-oxotetrahydrofuran-2-carboxamido)propan-2-ylcarbamate] | ≤ 30
10 | C=C[C@@H]1C[C@]1(NC(=O)[C@@H]1CC(OC(=O)N2Cc3cccc(F)c3C2)CN1C(=O)[C@H](COC(=O)N[C@@H]1C(=O)O[C@@H]1C)NC(=O)OC(C)(C)C)C(=O)NS(=O)(=O)C1CC1 (stereo partly drawn) [XVI-25, (5S)-1-((S)-2-(tert-butoxycarbonylamino)-3-((2R,3S)-2-methyl-4-oxooxetan-3-ylcarbamoyloxy)propanoyl)-5-((1R,2S)-1-(cyclopropylsulfonylcarbamoyl)-2-vinylcyclopropylcarbamoyl)pyrrolidin-3-yl 4-fluoroisoindoline-2-carboxylate] | ≤ 30
11 | C=C[C@@H]1C[C@]1(NC(=O)[C@@H]1CC(Oc2cc(-c3ccccc3)nc3cc(OC)ccc23)CN1C(=O)[C@H](CCC(=O)N1CCC1=O)NC(=O)OC(C)(C)C)C(=O)NS(=O)(=O)C1CC1 (some centres unmarked) [XVI-26] | > 70
